Laboratory results taken from US20080248008A1, “Inhibitors of Protein Kinase a Anchoring” (priority 2004, published 2008).
At least one structure is not confirmed: it was looked up by name or label, or the drawing left a doubt.

By UniProt entry, the sequences of proteins in these tests, tags left out. Residues count along the entry.
UniProt P00514, whole entry: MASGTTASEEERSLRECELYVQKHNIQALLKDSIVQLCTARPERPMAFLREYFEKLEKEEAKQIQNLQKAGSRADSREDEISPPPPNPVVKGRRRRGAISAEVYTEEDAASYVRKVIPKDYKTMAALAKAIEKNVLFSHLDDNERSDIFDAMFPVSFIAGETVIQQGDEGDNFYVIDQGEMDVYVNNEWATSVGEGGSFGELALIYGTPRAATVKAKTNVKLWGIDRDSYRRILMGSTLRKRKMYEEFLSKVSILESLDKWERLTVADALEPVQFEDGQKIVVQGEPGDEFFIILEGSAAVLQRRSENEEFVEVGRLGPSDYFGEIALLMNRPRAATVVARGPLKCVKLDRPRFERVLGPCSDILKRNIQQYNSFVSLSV
UniProt P00514, 12-380, stated change not applied: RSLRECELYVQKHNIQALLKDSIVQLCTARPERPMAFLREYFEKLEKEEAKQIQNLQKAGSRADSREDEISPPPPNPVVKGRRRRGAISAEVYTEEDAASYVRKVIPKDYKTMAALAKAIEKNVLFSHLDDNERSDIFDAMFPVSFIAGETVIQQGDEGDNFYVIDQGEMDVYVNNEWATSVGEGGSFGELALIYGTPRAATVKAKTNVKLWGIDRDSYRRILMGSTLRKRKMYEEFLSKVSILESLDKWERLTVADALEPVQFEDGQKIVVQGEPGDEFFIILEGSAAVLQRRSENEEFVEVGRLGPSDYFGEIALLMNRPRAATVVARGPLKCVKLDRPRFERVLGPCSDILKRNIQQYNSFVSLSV
UniProt P00514, 16-380, stated change not applied: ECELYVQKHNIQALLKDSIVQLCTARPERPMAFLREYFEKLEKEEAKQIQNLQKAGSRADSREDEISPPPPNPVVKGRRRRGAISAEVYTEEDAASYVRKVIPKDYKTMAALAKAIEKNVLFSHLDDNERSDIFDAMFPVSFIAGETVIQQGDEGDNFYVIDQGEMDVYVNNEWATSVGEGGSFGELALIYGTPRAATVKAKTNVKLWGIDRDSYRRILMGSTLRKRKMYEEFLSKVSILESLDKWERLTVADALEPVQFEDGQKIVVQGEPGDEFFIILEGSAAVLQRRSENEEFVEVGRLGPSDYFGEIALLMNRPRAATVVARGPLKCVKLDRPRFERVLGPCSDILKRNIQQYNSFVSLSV
UniProt P12367, whole entry: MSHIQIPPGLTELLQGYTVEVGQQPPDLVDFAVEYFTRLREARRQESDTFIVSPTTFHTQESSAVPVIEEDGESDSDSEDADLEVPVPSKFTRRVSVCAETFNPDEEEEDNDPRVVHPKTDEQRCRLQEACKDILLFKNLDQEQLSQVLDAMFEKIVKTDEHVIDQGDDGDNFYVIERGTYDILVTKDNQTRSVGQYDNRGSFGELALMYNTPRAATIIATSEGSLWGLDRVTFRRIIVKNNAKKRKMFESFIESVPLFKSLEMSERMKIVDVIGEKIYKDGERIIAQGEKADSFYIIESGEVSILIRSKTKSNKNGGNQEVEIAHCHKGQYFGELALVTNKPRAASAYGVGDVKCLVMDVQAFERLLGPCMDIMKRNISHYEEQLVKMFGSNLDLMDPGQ

Experiments:
RIα = molecular target: T1, RIα (Bos taurus, UniProt P00514); assay: Fluorescence polarization, dissociation constant for RI; assay type: binding, bovine; conditions: FITC-labeled peptide, wild type RIα
T1 construct: made in house; host or cells: E. coli BL21 (B121 [sic])
Description: (§1) Fluorescence Polarization. FITC-labeled peptides (SynPep, San Diego) that were used for fluorescence polarization studies included MEME3 (LEQYANQLADQIIKEATEK(5-Carboxyfluorescein)-CONH2) and MEME3 scrambled peptide (IEKELAQQYQNADAITLEK(5-Carboxyfluorescein)-CONH2). Peptides (0.5 nM for RI experiments and 1 nM for RII experiments) were suspended to working dilutions in phosphate-buffered saline containing 5 μg/μl BSA, pH 7.0. Increasing concentrations of recombinant bovine RI wt or recombinant murine RII were added to a PBS solution and mixed with each FITC-labeled peptide. Each sample was incubated for 2.5 hours. Fluorescence polarization was measured on a Beacon 2000 (Panvera, Madison, Wis.), following the manufacturer's instructions. Saturation binding curves were generated with PRISM graphing software (GraphPad, San Diego). Dissociation constants (Kd) were calculated from the nonlinear regression curve from averages of minimum three individual experiments.
(§2) Protein expression and purification. Human RI, Bovine RI and N-terminal deletions thereof or murine RII was expressed in E. coli B121 by IPTG induction. The RI containing pellet was incubated in lysis buffer (10 mM MOPS, pH 6.5, 100 mM NaCl, 10 μM DTT added protease inhibitors) and sonicated (Branson Sonifier 250) for 1 minute in three intervals at 0° C. […]

RIIα = molecular target: T2, RIIα (Mus musculus, UniProt P12367); assay: Fluorescence polarization, dissociation constant for RII; assay type: binding; conditions: n=3
T2 construct: His tag; made in house; host or cells: E. coli BL21 (B121 [sic])
Description: as §1, §2

RIα(Δ1-11) = molecular target: T3, RIα(Δ1-11) (Bos taurus, UniProt P00514); assay: Fluorescence polarization with N-truncated RIα(Δ1-11); assay type: binding, bovine
T3 construct: made in house; host or cells: E. coli BL21 (B121 [sic])

RIα (Δ1-15) = molecular target: T4, RIα (Δ1-15) (Bos taurus, UniProt P00514); assay: Fluorescence polarization with N-truncated RIα (Δ1-15); assay type: binding, bovine
T4 construct: made in house; host or cells: E. coli BL21 (B121 [sic])

For `CC[C@H](C)[C@H](NC(=O)[C@H](CCC(N)=O)NC(=O)[C@H](CC(=O)O)NC(=O)[C@H](C)NC(=O)[C@H](CC(C)C)NC(=O)[C@H](CCC(N)=O)NC(=O)[C@H](CC(N)=O)NC(=O)[C@H](C)NC(=O)[C@H](Cc1ccc(O)cc1)NC(=O)[C@H](CCC(N)=O)NC(=O)[C@H](CCC(=O)O)NC(=O)[C@@H](N)CC(C)C)C(=O)N[C@H](C(=O)N[C@@H](CCCCN)C(=O)N[C@@H](CCC(=O)O)C(=O)N[C@@H](C)C(=O)N[C@H](C(=O)N[C@@H](CCC(=O)O)C(=O)N[C@@H](CCCCNC(=O)c1ccc2c(c1)C(=O)OC21c2ccc(O)cc2Oc2cc(O)ccc21)C(N)=O)[C@@H](C)O)[C@@H](C)CC` [MEME3], which Kd (RIα) is on record?
Its Kd is 0.82 nM.

What about the Kd (RIIα) of the same compound?
Its Kd is 1600 nM.

And the Kd (RIα(Δ1-11))?
The Kd was 0.78 nM.

What about the Kd (RIα (Δ1-15)) of the same compound?
The Kd was 0.45 nM.
